Results: the supplement of paper PMC10849652
This is one part of the list.

The chains behind the UniProt entries cited, without tags or fusion partners. Where a name states a change or a piece, a line headed by the entry shows the natural chain unless it says otherwise.
UniProt Q8WU58: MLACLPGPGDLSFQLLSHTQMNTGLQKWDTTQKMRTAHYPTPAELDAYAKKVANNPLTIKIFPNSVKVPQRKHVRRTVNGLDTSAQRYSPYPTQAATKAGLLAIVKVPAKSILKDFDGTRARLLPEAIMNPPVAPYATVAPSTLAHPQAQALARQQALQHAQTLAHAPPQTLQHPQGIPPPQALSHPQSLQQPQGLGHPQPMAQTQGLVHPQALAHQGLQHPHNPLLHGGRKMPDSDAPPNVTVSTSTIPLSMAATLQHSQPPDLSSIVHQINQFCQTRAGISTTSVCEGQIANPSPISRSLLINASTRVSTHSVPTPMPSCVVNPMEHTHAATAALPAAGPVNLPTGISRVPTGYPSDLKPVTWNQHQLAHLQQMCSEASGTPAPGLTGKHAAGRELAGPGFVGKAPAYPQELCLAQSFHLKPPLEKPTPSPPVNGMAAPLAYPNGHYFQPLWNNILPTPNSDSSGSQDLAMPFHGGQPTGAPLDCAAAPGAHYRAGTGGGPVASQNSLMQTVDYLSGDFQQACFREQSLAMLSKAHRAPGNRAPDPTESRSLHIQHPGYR
UniProt Q9NYF3: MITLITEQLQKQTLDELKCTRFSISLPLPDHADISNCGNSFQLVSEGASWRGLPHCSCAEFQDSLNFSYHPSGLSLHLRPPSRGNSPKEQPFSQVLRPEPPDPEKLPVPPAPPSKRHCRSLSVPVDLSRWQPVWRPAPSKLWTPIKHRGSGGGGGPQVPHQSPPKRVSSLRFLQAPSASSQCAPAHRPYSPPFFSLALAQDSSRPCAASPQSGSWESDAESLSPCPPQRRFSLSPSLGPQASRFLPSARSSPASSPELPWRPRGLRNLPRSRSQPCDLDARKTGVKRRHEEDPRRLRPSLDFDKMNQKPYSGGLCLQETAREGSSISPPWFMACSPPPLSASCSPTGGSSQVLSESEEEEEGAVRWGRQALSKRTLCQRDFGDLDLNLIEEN
UniProt P16591: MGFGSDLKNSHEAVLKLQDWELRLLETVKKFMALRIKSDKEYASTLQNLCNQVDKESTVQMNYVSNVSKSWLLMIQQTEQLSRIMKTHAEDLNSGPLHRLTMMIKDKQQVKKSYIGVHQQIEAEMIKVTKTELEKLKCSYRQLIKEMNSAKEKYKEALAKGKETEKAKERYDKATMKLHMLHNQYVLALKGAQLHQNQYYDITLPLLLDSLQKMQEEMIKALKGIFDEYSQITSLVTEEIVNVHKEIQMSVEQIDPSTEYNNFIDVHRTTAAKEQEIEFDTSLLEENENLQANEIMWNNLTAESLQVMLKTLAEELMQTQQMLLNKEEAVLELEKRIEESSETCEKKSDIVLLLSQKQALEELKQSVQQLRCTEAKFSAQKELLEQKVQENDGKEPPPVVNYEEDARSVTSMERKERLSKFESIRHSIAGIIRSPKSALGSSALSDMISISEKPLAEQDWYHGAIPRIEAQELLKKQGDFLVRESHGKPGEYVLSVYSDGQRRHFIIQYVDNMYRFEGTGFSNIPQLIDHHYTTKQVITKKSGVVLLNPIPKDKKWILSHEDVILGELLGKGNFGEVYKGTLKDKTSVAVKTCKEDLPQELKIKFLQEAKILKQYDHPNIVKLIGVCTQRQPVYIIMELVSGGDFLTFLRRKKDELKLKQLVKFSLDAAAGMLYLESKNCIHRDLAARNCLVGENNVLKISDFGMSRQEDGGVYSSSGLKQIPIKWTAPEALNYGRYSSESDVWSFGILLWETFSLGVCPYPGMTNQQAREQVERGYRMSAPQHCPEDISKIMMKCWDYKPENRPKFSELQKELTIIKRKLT
UniProt Q96CD0: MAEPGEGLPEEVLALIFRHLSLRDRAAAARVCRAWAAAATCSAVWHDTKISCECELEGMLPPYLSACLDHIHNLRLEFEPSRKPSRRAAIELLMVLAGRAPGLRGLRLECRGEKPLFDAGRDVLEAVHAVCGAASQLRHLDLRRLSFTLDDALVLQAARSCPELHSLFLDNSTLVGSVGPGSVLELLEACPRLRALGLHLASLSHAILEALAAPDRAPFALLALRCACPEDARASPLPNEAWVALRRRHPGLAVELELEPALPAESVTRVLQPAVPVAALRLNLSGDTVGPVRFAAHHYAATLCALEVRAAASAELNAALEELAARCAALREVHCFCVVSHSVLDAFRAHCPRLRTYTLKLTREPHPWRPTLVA
UniProt O15360: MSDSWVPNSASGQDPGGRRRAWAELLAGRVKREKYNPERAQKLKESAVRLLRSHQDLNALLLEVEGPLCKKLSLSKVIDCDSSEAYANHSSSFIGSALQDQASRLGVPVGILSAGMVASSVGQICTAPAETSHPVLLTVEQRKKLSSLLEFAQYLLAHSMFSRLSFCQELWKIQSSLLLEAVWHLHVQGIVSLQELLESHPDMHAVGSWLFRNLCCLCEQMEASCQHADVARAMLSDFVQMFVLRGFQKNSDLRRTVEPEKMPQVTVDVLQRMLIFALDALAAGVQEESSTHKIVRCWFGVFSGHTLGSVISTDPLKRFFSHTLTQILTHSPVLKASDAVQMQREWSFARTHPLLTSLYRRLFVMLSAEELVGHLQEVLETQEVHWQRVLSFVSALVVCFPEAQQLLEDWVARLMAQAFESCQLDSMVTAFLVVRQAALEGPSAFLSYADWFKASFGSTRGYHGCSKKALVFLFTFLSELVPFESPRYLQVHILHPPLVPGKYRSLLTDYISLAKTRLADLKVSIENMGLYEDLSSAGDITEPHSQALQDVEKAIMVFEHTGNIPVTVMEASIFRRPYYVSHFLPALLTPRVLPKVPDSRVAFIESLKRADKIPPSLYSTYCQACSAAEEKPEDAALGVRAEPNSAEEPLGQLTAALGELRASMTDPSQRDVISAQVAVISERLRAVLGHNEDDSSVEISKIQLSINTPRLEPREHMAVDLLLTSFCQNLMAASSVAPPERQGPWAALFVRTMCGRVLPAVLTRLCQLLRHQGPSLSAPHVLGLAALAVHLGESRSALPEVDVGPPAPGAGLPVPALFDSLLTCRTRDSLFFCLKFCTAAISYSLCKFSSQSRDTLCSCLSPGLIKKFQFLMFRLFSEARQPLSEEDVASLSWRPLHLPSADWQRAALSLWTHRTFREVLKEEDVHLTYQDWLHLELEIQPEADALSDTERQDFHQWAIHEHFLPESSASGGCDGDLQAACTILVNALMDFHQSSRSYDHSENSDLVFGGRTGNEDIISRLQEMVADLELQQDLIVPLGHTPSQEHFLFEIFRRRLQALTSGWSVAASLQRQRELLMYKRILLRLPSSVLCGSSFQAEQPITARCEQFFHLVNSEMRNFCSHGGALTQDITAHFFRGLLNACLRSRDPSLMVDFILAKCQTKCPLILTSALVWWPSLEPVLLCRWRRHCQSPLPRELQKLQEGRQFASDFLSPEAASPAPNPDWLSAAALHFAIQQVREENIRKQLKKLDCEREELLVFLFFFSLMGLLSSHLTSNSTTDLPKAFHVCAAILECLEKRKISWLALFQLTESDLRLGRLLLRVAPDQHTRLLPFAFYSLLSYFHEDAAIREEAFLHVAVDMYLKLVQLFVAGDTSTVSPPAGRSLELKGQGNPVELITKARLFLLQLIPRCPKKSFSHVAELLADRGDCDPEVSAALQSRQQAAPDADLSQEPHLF
UniProt Q8N6M3: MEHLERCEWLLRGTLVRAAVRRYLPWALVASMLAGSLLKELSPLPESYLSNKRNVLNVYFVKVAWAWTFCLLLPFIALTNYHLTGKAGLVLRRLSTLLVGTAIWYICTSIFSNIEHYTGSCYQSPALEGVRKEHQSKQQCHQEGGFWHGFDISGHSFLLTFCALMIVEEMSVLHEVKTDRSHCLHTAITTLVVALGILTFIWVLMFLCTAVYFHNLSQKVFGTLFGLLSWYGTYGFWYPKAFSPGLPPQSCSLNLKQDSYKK
UniProt Q9Y2H6: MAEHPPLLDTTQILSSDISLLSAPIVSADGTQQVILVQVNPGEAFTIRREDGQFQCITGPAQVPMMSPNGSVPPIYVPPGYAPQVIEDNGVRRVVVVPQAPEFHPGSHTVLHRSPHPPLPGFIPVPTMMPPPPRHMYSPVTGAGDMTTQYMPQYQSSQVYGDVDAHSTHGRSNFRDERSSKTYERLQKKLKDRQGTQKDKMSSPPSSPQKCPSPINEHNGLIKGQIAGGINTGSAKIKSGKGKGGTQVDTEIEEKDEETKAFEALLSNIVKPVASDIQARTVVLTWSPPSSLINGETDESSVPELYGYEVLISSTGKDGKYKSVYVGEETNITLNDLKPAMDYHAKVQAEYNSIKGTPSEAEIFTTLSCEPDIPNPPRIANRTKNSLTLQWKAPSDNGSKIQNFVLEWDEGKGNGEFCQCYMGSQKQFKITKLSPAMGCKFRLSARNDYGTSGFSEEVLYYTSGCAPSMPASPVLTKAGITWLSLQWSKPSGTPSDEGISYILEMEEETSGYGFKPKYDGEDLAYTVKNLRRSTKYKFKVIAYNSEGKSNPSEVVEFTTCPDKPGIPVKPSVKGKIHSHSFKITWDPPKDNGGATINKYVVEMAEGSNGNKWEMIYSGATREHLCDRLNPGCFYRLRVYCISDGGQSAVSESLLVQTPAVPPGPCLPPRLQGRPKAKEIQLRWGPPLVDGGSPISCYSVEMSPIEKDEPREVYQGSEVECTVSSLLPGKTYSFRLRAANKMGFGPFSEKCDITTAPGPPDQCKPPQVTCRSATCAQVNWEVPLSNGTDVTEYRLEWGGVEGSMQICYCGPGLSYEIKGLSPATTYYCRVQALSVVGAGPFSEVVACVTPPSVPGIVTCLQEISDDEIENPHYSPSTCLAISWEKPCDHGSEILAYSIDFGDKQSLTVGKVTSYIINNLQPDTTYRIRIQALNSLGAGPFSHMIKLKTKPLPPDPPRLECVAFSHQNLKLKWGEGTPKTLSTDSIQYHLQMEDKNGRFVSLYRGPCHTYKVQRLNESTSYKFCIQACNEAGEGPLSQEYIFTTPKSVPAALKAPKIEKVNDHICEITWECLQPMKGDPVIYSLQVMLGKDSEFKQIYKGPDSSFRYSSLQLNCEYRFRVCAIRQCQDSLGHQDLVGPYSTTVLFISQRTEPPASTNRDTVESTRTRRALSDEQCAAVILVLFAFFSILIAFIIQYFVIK
UniProt Q96GI7: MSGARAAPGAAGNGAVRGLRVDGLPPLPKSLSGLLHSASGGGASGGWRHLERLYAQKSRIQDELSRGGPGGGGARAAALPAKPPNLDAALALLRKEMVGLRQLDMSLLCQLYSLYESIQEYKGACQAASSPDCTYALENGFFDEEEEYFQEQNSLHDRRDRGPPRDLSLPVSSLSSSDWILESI
UniProt Q14153: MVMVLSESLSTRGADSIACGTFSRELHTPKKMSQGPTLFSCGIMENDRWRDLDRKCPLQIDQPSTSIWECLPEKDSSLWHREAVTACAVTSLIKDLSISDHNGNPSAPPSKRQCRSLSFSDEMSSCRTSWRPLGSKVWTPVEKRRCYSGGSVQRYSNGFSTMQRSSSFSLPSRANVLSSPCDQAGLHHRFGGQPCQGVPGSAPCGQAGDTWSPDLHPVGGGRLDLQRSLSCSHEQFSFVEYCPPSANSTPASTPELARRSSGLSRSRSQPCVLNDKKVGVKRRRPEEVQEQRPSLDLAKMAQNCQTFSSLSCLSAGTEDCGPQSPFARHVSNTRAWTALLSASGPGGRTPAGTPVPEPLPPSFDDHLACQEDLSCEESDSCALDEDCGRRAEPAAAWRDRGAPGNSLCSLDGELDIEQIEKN

compound: c1cn2cc(-c3ccc4cn[nH]c4c3)nc(Nc3ccc(N4CCOCC4)cc3)c2n1 [entospletinib]; test: log2 fold change, soluble protein after heating vs DMSO (PISA); higher = thermal stabilisation; K562 cells, 10 uM, 30 min; active = over 0.2 and 3.5 SD of the protein, either way, in both replicates (recomputed)
Outline: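 Aliquots of K562 cells (2×10^6 cells/mL) treated with 10 μM compound for 30 min were heated for 3 min over 48°C-58°C. After pooling and extraction in PBS with 0.5% NP-40 at 4°C, soluble protein from a 21,000xg, 90 min spin was quantified by TMTpro 16plex LC-MS/MS with channel sums equalised. Thermal stability is expressed against control samples, from duplicates, as a log2 fold change.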

log2 fold change, inactive:
FAT3 isoform 1 (UniProt Q8TDW7) 0.352
FLT1 (UniProt P17948) 0.088
FAM222B (UniProt Q8WU58) 0.029
FAM53C (UniProt Q9NYF3) 0.001
FER (UniProt P16591) 0.465
FBXL8 (UniProt Q96CD0) 0.016
FANCA (UniProt O15360) 0.135
FITM2 (UniProt Q8N6M3) -0.012
FNDC3A (UniProt Q9Y2H6) -0.091
FAM89A (UniProt Q96GI7) 0.019
FAM53B (UniProt Q14153) 0.08

For convenience, some entries already given.
log2 fold change, inactive:
FAM53C (UniProt Q9NYF3) 0.001
FER (UniProt P16591) 0.465
FBXL8 (UniProt Q96CD0) 0.016
